These are yes or no findings as the source states them, for the method shown. Some binding calls cover weakened binding; strength is not graded here.
Target: His-tagged luciferase, heat-aggregated on the BLI sensor (firefly) [luciferase: P08659]
Test: BLI; ForteBio BLItz; His-tagged luciferase aggregated on the sensor; 5 µM sHsp (preincubated 10 min at 44 °C) bound for 10 min, then buffer F or Hsp70 system (0.7 µM DnaK, 0.28 µM DnaJ, 0.21 µM GrpE, 5 mM ATP) for 1 hr; room temperature; both purified

B1: IbpA from Erwinia amylovora (protein, UniProt A0ABX7MII2 1-139)
chain: MRNFDLAPLYRSSIGFDRLINLLETSQNQGNNGGYPPYNVELVAENHYRITIAVAGFAESELEITSHDNLLSVRGSHPDEQQERTWLYQGIAERNFERKFQLAEHVHVRDARLENGLLYIDLERVVPEANQPRRIEIVK
binding: binds

— PMC10708888, “Evolution towards simplicity in bacterial small heat shock protein system” (eLife, 2023)
